Structures can show the parent of a compound that is named as a salt. Some of the results follow. The calls rarely recur for the same compound in another form.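 Kinases were expressed as nanoluciferase fusions in K562 cells and luminescence was read every 4 h between 2 and 18 h as percent of control, DMSO set to 100% and a positive control to 0%. A time point counts as decreased when the signal drops significantly (2 sigma). The hit call is the authors' own, does not follow from the count of time points alone, and its rule is not shown.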
What was measured:
Assay in all cases: number of time points (of 5) at which kinase-Nluc abundance scored as decreased, DMSO-normalised (count); higher = more persistent destabilization
Settings in all cases: K562; 2-18 h
ROR2 = ROR2 (UniProt Q01974)
RPS6KA1 = RPS6KA1 (UniProt Q15418)
SPHK1 = SPHK1 (UniProt Q9NYA1)
SRC = SRC (UniProt P12931)
STK24 = STK24 (UniProt Q9Y6E0)
STK38 = STK38 (UniProt Q15208)
SYK = SYK (UniProt P43405)
TEC = TEC (UniProt P42680)
TYK2 = TYK2 (UniProt P29597)
ULK3 = ULK3 (UniProt Q6PHR2)

Amino acid sequences for entries named in this document (tags omitted). A change or cut given only in a name is not applied to a line headed by its entry.
UniProt Q01974, whole entry: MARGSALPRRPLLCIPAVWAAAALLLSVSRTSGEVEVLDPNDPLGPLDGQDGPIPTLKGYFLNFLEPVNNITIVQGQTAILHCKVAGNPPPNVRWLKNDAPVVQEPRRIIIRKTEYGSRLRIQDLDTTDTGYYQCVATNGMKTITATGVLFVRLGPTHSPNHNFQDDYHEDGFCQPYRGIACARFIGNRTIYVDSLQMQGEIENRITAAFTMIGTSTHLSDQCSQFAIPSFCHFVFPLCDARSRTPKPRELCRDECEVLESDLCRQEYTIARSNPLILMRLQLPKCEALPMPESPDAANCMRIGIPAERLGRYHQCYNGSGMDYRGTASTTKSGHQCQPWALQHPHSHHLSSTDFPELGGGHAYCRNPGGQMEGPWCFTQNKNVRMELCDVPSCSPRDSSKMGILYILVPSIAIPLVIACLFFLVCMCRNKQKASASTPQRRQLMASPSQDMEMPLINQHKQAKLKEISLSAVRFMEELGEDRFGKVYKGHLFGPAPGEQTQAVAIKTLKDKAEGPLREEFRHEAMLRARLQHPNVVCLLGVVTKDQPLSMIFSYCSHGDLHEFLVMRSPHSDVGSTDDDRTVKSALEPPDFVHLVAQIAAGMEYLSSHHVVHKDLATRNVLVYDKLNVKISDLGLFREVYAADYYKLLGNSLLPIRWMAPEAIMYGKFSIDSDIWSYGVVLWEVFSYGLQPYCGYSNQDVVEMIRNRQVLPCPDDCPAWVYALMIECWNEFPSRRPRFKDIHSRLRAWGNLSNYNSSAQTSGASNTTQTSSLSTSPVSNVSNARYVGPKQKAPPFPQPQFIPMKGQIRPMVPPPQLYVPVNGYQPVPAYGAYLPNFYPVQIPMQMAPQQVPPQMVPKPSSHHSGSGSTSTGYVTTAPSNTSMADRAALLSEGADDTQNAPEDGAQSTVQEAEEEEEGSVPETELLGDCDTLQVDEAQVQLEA
UniProt Q15418, whole entry: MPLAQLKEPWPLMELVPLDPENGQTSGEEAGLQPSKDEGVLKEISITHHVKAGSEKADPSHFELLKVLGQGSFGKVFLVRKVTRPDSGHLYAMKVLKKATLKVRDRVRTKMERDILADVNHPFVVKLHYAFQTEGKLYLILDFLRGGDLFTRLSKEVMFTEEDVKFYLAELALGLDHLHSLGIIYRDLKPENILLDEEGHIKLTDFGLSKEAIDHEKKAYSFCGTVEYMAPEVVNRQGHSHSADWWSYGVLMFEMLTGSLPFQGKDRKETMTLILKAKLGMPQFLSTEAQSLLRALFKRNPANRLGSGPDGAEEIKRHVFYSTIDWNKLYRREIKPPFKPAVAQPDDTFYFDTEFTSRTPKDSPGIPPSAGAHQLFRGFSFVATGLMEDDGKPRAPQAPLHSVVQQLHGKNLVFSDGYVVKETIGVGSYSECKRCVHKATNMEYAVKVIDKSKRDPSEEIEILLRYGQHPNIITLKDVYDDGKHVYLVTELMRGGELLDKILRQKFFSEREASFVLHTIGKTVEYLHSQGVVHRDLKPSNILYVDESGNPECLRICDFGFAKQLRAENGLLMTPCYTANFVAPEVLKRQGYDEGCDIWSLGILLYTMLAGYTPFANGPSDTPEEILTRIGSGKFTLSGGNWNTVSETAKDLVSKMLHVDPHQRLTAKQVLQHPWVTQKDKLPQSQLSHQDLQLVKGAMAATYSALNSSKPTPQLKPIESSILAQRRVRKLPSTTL
UniProt Q9NYA1, whole entry: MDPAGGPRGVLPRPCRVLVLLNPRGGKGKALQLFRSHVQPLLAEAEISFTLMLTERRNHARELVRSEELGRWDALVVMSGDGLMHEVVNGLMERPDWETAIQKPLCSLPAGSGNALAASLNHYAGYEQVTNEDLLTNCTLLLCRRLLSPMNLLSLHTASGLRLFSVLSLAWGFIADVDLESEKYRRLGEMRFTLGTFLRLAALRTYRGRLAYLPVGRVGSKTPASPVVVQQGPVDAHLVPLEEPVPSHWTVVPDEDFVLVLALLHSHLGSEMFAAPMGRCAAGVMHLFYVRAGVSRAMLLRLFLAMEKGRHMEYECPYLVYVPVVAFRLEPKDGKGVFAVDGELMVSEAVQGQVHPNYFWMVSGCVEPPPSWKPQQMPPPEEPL
UniProt Q9Y6E0: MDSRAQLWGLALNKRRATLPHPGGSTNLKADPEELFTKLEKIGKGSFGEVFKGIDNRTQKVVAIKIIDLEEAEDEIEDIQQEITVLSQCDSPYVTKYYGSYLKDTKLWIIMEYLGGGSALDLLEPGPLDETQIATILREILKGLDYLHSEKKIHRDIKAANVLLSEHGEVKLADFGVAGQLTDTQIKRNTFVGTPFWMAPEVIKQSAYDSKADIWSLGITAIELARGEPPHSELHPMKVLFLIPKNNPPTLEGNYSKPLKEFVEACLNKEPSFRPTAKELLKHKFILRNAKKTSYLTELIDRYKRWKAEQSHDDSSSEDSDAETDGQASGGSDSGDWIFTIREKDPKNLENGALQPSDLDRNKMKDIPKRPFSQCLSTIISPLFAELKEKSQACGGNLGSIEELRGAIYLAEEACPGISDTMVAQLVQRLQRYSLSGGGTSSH
UniProt Q15208: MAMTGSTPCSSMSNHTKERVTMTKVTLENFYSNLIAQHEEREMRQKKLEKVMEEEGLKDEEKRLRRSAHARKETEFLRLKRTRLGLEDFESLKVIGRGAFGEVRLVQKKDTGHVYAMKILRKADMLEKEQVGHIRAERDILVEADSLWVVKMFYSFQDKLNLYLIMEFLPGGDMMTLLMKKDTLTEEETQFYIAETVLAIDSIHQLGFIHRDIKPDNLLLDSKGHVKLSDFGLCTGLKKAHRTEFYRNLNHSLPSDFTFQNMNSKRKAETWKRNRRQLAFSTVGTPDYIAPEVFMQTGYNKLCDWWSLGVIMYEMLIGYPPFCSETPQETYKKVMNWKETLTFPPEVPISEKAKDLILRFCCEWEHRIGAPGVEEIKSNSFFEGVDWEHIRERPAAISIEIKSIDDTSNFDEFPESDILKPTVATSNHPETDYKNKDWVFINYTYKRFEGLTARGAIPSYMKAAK
UniProt P42680: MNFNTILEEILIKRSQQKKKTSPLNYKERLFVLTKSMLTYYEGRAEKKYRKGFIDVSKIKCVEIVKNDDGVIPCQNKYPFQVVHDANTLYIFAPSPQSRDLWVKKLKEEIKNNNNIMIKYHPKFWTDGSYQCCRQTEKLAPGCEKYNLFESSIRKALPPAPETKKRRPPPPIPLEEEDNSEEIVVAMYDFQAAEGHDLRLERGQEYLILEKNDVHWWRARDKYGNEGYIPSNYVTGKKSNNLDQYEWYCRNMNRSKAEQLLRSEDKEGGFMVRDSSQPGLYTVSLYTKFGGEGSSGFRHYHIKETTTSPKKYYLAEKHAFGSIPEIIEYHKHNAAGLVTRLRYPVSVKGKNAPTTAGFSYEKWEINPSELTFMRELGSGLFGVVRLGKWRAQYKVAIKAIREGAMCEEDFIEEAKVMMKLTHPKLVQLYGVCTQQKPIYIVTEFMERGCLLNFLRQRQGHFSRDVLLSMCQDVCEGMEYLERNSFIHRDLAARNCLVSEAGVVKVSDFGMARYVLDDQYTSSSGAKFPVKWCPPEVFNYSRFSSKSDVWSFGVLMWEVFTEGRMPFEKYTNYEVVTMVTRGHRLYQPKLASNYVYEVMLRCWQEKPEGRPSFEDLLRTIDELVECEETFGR
UniProt P29597: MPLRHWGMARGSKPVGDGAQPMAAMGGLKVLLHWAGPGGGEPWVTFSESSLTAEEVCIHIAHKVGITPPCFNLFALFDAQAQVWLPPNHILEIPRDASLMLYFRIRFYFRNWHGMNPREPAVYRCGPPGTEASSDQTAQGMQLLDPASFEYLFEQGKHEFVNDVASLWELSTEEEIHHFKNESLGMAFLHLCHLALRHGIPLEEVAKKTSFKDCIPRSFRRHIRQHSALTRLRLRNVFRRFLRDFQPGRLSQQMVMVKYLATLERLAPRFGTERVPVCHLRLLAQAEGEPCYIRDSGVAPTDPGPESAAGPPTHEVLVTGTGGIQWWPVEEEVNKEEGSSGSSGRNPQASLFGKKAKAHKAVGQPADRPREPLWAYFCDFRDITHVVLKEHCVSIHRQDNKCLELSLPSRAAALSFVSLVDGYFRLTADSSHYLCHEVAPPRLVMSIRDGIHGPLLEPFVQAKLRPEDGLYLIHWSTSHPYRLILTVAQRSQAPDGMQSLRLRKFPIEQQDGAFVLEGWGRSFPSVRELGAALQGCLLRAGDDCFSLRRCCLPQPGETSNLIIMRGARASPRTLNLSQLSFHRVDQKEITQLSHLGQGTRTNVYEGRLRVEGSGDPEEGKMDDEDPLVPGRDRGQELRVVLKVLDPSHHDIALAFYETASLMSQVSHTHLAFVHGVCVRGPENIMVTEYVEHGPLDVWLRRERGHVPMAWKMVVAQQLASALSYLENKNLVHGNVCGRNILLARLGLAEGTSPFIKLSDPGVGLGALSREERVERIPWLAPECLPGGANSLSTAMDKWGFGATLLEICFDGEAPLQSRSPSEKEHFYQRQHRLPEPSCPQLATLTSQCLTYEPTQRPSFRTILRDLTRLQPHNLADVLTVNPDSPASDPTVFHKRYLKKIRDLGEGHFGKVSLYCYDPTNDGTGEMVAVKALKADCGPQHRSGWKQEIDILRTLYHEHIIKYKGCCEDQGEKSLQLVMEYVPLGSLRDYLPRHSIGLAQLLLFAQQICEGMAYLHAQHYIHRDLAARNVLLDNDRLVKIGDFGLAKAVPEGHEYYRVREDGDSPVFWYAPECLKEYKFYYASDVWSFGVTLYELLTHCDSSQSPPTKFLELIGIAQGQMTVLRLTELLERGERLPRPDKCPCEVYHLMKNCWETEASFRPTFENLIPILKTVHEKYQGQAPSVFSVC
UniProt Q6PHR2: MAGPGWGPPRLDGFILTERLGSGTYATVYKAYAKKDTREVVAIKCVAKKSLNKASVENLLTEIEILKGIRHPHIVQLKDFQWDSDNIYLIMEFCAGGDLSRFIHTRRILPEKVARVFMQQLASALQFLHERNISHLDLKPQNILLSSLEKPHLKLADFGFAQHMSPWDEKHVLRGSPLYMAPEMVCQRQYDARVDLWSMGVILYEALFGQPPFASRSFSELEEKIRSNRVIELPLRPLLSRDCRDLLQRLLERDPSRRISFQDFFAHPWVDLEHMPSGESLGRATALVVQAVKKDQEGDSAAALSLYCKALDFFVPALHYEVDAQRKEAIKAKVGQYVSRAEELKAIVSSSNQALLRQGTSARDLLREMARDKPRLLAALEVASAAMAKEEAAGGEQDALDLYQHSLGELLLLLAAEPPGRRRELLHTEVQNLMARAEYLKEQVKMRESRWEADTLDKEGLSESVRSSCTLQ

Measured: number of time points

O=C(O)[C@]1(Cc2cccc(Nc3nccs3)n2)CC[C@@H](Oc2cccc(Cl)c2F)CC1 (2.5 µM)
2: TEC | TYK2 | ULK3
0: ROR2 | RPS6KA1 | SPHK1 | SRC | STK24 | STK38 | SYK

COC(=O)c1cc2c(OC(C)C)cc(OC(C)C)cc2[nH]1 (2.5 µM)
0: ROR2 | RPS6KA1 | SPHK1 | SRC | STK24 | STK38 | SYK | TEC | TYK2 | ULK3

CNC(=O)c1c(C)oc2cc(Oc3ncnc4cc(OC)c(OC)cc34)ccc12 [Fruquintinib] (10 µM)
0: ROR2 | RPS6KA1 | SPHK1 | SRC | STK24 | STK38 | SYK | TEC | TYK2 | ULK3

CCn1c(-c2nonc2N)nc2c(C#CCO)ncc(OCCCN)c21 [AKT Kinase Inhibitor] (10 µM)
0: ROR2 | RPS6KA1 | SPHK1 | SRC | STK24 | STK38 | SYK | TEC | TYK2 | ULK3

CCCC[C@H](CO)Nc1nc(NC)ncc1OC [Interferon receptor inducer-1] (10 µM)
0: ROR2 | RPS6KA1 | SPHK1 | SRC | STK24 | STK38 | SYK | TEC | TYK2 | ULK3

CNS(=O)(=O)Nc1nccc(Cc2c(C)c3ccc(Oc4ncccn4)cc3oc2=O)c1F (10 µM)
1: TYK2 | ULK3
0: ROR2 | RPS6KA1 | SPHK1 | SRC | STK24 | STK38 | SYK | TEC

COC[C@H]1Cn2cc(-c3nc(Nc4ccnn4C)ncc3C)nc2C(=O)N1Cc1ccc(F)c(F)c1 (10 µM)
0: ROR2 | RPS6KA1 | SPHK1 | SRC | STK24 | STK38 | SYK | TEC | TYK2 | ULK3

CC(C)c1cnn2c(NCc3ccccc3)cc(NCCCCCCN)nc12 [BS-181 (hydrochloride)] (10 µM)
0: ROR2 | RPS6KA1 | SPHK1 | SRC | STK24 | STK38 | SYK | TEC | TYK2 | ULK3

Cc1cc(/C=C2\CC/C(=C\c3cc(C)c(O)c(C)c3)C2=O)cc(C)c1O [Pentagamavunon-1] (2.5 µM)
0: ROR2 | RPS6KA1 | SPHK1 | SRC | STK24 | STK38 | SYK | TEC | TYK2 | ULK3

CCn1c2ccccc2c2cc(Nc3ccnc(NCCCN4CCOCC4)n3)ccc21 (2.5 µM)
0: ROR2 | RPS6KA1 | SPHK1 | SRC | STK24 | STK38 | SYK | TEC | TYK2 | ULK3

Cn1cc(-c2ccc3ncc(Cc4ccc5ncccc5c4)n3n2)cn1 (10 µM)
0: ROR2 | RPS6KA1 | SPHK1 | SRC | STK24 | STK38 | SYK | TEC | TYK2 | ULK3

Nc1nc2c(ncn2COCCO)c(=O)[nH]1 [Acyclovir] (10 µM)
0: ROR2 | RPS6KA1 | SPHK1 | SRC | STK24 | STK38 | SYK | TEC | TYK2 | ULK3

COc1cccc(Nc2ncnn3ccc(CN4CC[C@@H](N)[C@H](O)C4)c23)c1 (2.5 µM)
0: ROR2 | RPS6KA1 | SPHK1 | SRC | STK24 | STK38 | SYK | TEC
3: TYK2 | ULK3

N#Cc1cn([C@@H]2O[C@H](CO)[C@@H](O)[C@H]2O)c2nc[nH]c(=O)c12 [Jaspamycin] (10 µM)
0: ROR2 | RPS6KA1 | SPHK1 | SRC | STK24 | STK38 | SYK | TEC | TYK2 | ULK3

CC(C)(C)S(=O)(=O)c1ccc2nccc(Nc3n[nH]c4ccc(F)cc34)c2c1 (10 µM)
0: ROR2 | RPS6KA1 | SPHK1 | SRC | STK24 | STK38 | SYK | TEC | TYK2 | ULK3

Cn1c(=O)c(Oc2ccc(F)cc2F)cc2cnc(NC(CCO)CCO)nc21 [Pamapimod] (10 µM)
0: ROR2 | RPS6KA1 | SPHK1 | SRC | STK24 | STK38 | SYK | TEC | TYK2 | ULK3

CC(C)(C)S(=O)(=O)c1cc2c(Nc3ccc4scnc4c3)ccnc2cc1OCCOCCOCCOCCOCC(=O)Nc1cccc2c1CN(C1CCC(=O)NC1=O)C2=O (stereo not given) [PROTAC RIPK degrader-6] (10 µM)
0: ROR2 | RPS6KA1 | SPHK1 | SRC | STK24 | STK38 | SYK | TEC | TYK2 | ULK3

As a working copy, two of the compounds above.
COc1cccc(Nc2ncnn3ccc(CN4CC[C@@H](N)[C@H](O)C4)c23)c1 (2.5 µM)
0: ROR2 | RPS6KA1 | SPHK1 | SRC | STK24 | STK38 | SYK | TEC
3: TYK2 | ULK3

N#Cc1cn([C@@H]2O[C@H](CO)[C@@H](O)[C@H]2O)c2nc[nH]c(=O)c12 [Jaspamycin] (10 µM)
0: ROR2 | RPS6KA1 | SPHK1 | SRC | STK24 | STK38 | SYK | TEC | TYK2 | ULK3

Remaining list, next part.

C[C@H](CC[C@@H](O)C(C)(C)O)[C@H]1CC[C@@]2(C)[C@@H]3CC=C4[C@@H](CC[C@H](O)C4(C)C)[C@]3(C)[C@H](O)C[C@]12C [Mogrol] (10 µM)
0: ROR2 | RPS6KA1 | SPHK1 | SRC | STK24 | STK38 | SYK | TEC | TYK2 | ULK3

CC(C)n1cnnc1-c1cccc(NC(=O)c2cc3ccc(F)cc3[nH]2)n1 (2.5 µM)
4: TYK2
0: ROR2 | RPS6KA1 | SPHK1 | SRC | STK24 | STK38 | SYK
3: TEC | ULK3

Cc1cccc(Cn2nc(C)c3c(NC(=O)c4csc5c(N)ncnc45)cccc32)n1 (10 µM)
0: ROR2 | RPS6KA1 | SPHK1 | SRC | STK24 | STK38 | SYK | TEC | TYK2 | ULK3

Cc1c(C(=O)Nc2ccc(Oc3ccnc4cc(OCC(C)(C)O)ccc34)c(F)c2)c(=O)n(-c2ccccc2)n1C [Ningetinib Tosylate] (10 µM)
0: ROR2 | RPS6KA1 | SRC | STK24 | STK38 | SYK | TEC
1: SPHK1
3: TYK2 | ULK3

O=C1c2cccc(O)c2C(=O)c2c(O)cccc21 [Danthron] (10 µM)
0: ROR2 | RPS6KA1 | SPHK1 | SRC | STK24 | STK38 | SYK | TEC | TYK2 | ULK3

CCCCCC1CC1CC1CC1CCCCCCCC(=O)O (stereo not given) (10 µM)
0: ROR2 | RPS6KA1 | SPHK1 | SRC | STK24 | STK38 | SYK | TEC | TYK2 | ULK3

Oc1ccc2ccccc2c1SSc1c(O)ccc2ccccc12 (10 µM)
0: ROR2 | RPS6KA1 | SPHK1 | SRC | STK24 | STK38 | SYK | TEC | TYK2 | ULK3

O=C(Nc1nccs1)C(c1cc(F)ccc1O)N1Cc2ccccc2C1=O (stereo not given) (10 µM)
0: ROR2 | RPS6KA1 | SPHK1 | SRC | STK24 | STK38 | SYK | TEC | TYK2 | ULK3

CC(=O)c1cc(O)ccc1O [2,5-Dihydroxyacetophenone] (10 µM)
0: ROR2 | RPS6KA1 | SPHK1 | SRC | STK24 | STK38 | SYK | TEC | TYK2 | ULK3

CCOC(=O)C1=C[C@]2(CC)CCCN3CCc4c(n1c1ccccc41)[C@@H]32 [Vinpocetine] (10 µM)
0: ROR2 | RPS6KA1 | SPHK1 | SRC | STK24 | STK38 | SYK | TEC | TYK2 | ULK3

O=C(c1ccc(NS(=O)(=O)c2cccc3cccnc23)cc1)N1CCN(CC2CC2)CC1 [Mitapivat] (10 µM)
0: ROR2 | RPS6KA1 | SPHK1 | SRC | STK24 | STK38 | SYK | TEC | TYK2 | ULK3

C=CC(=O)Nc1cccc(Oc2nc(Nc3ccc(N4CCN(C)CC4)cc3)ncc2Cl)c1 (2.5 µM)
0: ROR2 | RPS6KA1 | SPHK1 | SRC | STK24 | STK38 | SYK | TEC | TYK2 | ULK3

C[C@@H](Nc1cc(F)cc(F)c1)c1cc(C(=O)N(C)C)cc2c(=O)cc(N3CCOCC3)oc12 (10 µM)
0: ROR2 | RPS6KA1 | SPHK1 | SRC | STK24 | STK38 | SYK | TEC | TYK2 | ULK3

CC[C@H](C)[C@@H]1NC(=O)[C@@H]2CCCN2C(=O)[C@@H]2CCCN2C(=O)[C@@H]2CCCN2C(=O)[C@H](CC(C)C)NC(=O)CNC(=O)CNC(=O)[C@H](Cc2ccccc2)NC1=O [Heterophyllin B] (10 µM)
0: ROR2 | RPS6KA1 | SPHK1 | SRC | STK24 | STK38 | SYK | TEC | TYK2 | ULK3

CN(C)CCCn1cc(C2=C(c3c[nH]c4ccccc34)C(=O)NC2=O)c2ccccc21 [Bisindolylmaleimide I] (2.5 µM)
0: ROR2 | RPS6KA1 | SPHK1 | SRC | STK24 | STK38 | SYK | TEC | TYK2 | ULK3

Cc1nc(Nc2ncc(C(=O)Nc3c(C)cccc3Cl)s2)cc(N2CCN(C(=O)CCCCCCC(=O)N[C@H](C(=O)N3C[C@H](O)C[C@H]3C(=O)NCc3ccc(-c4scnc4C)cc3)C(C)(C)C)CC2)n1 (2.5 µM)
2: SPHK1 | SRC | STK38
1: ROR2 | RPS6KA1
0: STK24 | SYK
3: TEC | TYK2 | ULK3

C=CC(=O)N[C@H]1CCOC[C@H]1Nc1ncc2cc(-c3c(Cl)c(OC)cc(OC)c3Cl)ccc2n1 [Fisogatinib] (10 µM)
0: ROR2 | RPS6KA1 | SPHK1 | SRC | STK24 | STK38 | SYK | TEC | TYK2 | ULK3

Reference: the supplement of paper PMC12823440, “Inhibitors supercharge kinase turnover through native proteolytic circuits” (Nature, 2025)
